Primary screen of a compound library

Values are the deposited “Percent Effect”, in %. The controls that fix the scale are not given in the record; negative values are as filed. This is an unselected part of the compounds tested. Two or more numbers in one place are separate tests of the same structure; such repeats can differ widely.

Mtb cholesterol medium: 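Phenotypic screen: M. tuberculosis growth, cholesterol and DPPC medium, 4 days; the read-out is not stated. Tested at 50 µM. Higher reads as more growth inhibition (inferred: compounds with an IC50 in retests scored well above the rest). Of about 69,000 compounds tested this way, about 370 (0.54%) reached 50% or more in at least one test.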
Mtb glucose medium: 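Whole-cell growth test on Mycobacterium tuberculosis, read after 3 days in glucose-containing 7H9 medium; the read-out is not stated. Concentration: 50 µM. Direction is inferred from retests: higher values go with more growth inhibition. About 69,000 compounds were tested under these conditions; 1.1% (about 760) showed 50% or more at least once.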

{"smiles": "[H][C@]12CC[C@]([H])(CC(=O)NC1)N2c1cc(-c2ccccc2F)nc2ccnn12", "Mtb cholesterol medium": -1.943, "Mtb glucose medium": 12}
{"smiles": "Cc1ccc(C(=O)N2CCCC3(CCCC(=O)N3C)C2)cc1F", "stereo": "stereo not shown", "Mtb cholesterol medium": -30.3, "Mtb glucose medium": -41.09}
{"smiles": "CCN(CCc1ccccc1)Cn1nc(C)c2c(C)onc2c1=O", "Mtb cholesterol medium": -6.587, "Mtb glucose medium": 4.938}
{"smiles": "CC(C)(C)C(O)CN1CCN(C(=O)c2cccc3ncccc23)CC1", "stereo": "stereo not shown", "Mtb cholesterol medium": -31.14}
{"smiles": "C1CN(c2nc(C3CC3)ns2)CCO1", "Mtb cholesterol medium": "-0.4963 and -8.043", "Mtb glucose medium": -11.15}
{"smiles": "COc1cc(CNc2nc(N3CCOCC3)ns2)cc(OC)c1OC", "Mtb cholesterol medium": 11.12, "Mtb glucose medium": 20.33}
{"smiles": "CCCC(NC(=O)c1ccc(OC)cc1C)c1nnn[nH]1", "stereo": "stereo not shown", "Mtb cholesterol medium": "-9.673 and -1.519", "Mtb glucose medium": -15.1}
{"smiles": "Cn1nccc1C(=O)N1CCCC2(CCN(c3ccsc3)C2=O)C1", "stereo": "stereo not shown", "Mtb cholesterol medium": -18.24, "Mtb glucose medium": "-18.36 and 2.383"}
{"smiles": "CC(C)(NCc1ccc(C#N)cc1)c1ccc2c(c1)OCO2", "Mtb cholesterol medium": -11.96, "Mtb glucose medium": "-29.16 and -1.337"}
{"smiles": "CCN1CCCC1CN(CCN(C)C)S(=O)(=O)c1ccccc1C#N", "stereo": "stereo not shown", "Mtb cholesterol medium": "2.383 and 1.647", "Mtb glucose medium": -26.93}
{"smiles": "[H][C@@]12CCN(C(=O)c3cnoc3C)C[C@@]1([H])O[C@@H](c1ccncn1)C2", "Mtb cholesterol medium": -36.03, "Mtb glucose medium": -5.347}
{"smiles": "O=C(O)C(F)(F)F.[H][C@@]12C[C@H](C)O[C@@]1([H])CCN(S(=O)(=O)c1c(C)nn(C)c1C)C2", "Mtb cholesterol medium": -6.842, "Mtb glucose medium": -2.704}
{"smiles": "COCCC(=O)N1CCCC(CCC(=O)NCc2cccc(OC)c2)C1", "stereo": "stereo not shown", "Mtb cholesterol medium": -23.74, "Mtb glucose medium": -28.32}
{"smiles": "CC(C#N)CN(C)C(=O)CCNC(=O)C(C)(C)C", "stereo": "stereo not shown", "Mtb cholesterol medium": -18.45, "Mtb glucose medium": -18.22}
{"smiles": "Cc1cc(C)n2cc(CN3CCC(N4CCN(C)C4=O)CC3)nc2n1", "Mtb cholesterol medium": 10.51, "Mtb glucose medium": 6.624}
{"smiles": "Cc1cccc(-c2ccc3nc(C4CCN(CC5CC5)CC4)nn3c2)c1.O=C(O)C(F)(F)F", "Mtb cholesterol medium": 8.812, "Mtb glucose medium": 16.06}
{"smiles": "O=C(c1cncs1)N1CCOCC(Cc2ccncn2)C1", "stereo": "stereo not shown", "Mtb cholesterol medium": "-0.2746 and -3.668", "Mtb glucose medium": 9.749}
{"smiles": "O=C(Nc1ccccc1CCc1ccccn1)NC1CCOCC1", "Mtb cholesterol medium": -1.031, "Mtb glucose medium": -15.04}
{"smiles": "O=C(c1ccc(Cl)cc1)N1CCC(N2CCOC2=O)CC1", "Mtb cholesterol medium": -4.895, "Mtb glucose medium": 19.34}
{"smiles": "[H][C@@]12CN(Cc3csc(C)n3)C[C@]1([H])OCCN2c1ncc(F)cn1", "Mtb cholesterol medium": -3.741, "Mtb glucose medium": -2.507}
{"smiles": "CN1CCC2(CCN(C(=O)c3cccnc3)C2)C1", "stereo": "stereo not shown", "Mtb cholesterol medium": 1.595, "Mtb glucose medium": 23.68}
{"smiles": "CC(C)(C)C(=O)NCCC(=O)Nc1cc(C#N)cn1C(C)(C)C", "Mtb cholesterol medium": "-13.88 and -2.786", "Mtb glucose medium": -22.62}
{"smiles": "C[C@H](N)Cn1nc(-c2cccs2)oc1=O.Cl", "Mtb cholesterol medium": -9.502, "Mtb glucose medium": 8.728}
{"smiles": "COc1cccc(-n2ccc3nc(N4CCCC4)ncc3c2=O)c1", "Mtb cholesterol medium": "14.16 and -14.34", "Mtb glucose medium": -10.57}
{"smiles": "O=C(NCCC1CCCCO1)c1coc(COc2ccc(F)cc2)n1", "stereo": "stereo not shown", "Mtb cholesterol medium": 4.095, "Mtb glucose medium": 1.271}
{"smiles": "[H][C@@]12CN(Cc3cccc(O)c3)C[C@]1([H])N(CCCN1CCOCC1)C(=O)O2", "Mtb cholesterol medium": "-4.618 and -1.791", "Mtb glucose medium": -14.02}
{"smiles": "CC(C)(NC(=O)NCc1cccc(Br)c1)C(=O)O", "Mtb cholesterol medium": 6.114, "Mtb glucose medium": "0.07869 and 10.46"}
{"smiles": "CC(=O)NC1(C(=O)N(C)Cc2c(C)noc2C)CCCCC1", "Mtb cholesterol medium": -15.29, "Mtb glucose medium": "-9.415 and -25.85"}
{"smiles": "Cc1c(C)n(CC(O)CN2CCC(C)CC2)c2c(Cl)cccc12", "stereo": "stereo not shown", "Mtb cholesterol medium": 10.84, "Mtb glucose medium": -18.48}

3 of the entries, repeated:

| SMILES | Mtb cholesterol medium | Mtb glucose medium |
|---|---|---|
| `CC(C)(NC(=O)NCc1cccc(Br)c1)C(=O)O` | 6.114 | 0.07869 and 10.46 |
| `[H][C@@]12CN(Cc3csc(C)n3)C[C@]1([H])OCCN2c1ncc(F)cn1` | -3.741 | -2.507 |
| `CN1CCC2(CCN(C(=O)c3cccnc3)C2)C1` (stereo not shown) | 1.595 | 23.68 |

Measurements from “University of Dundee, Small-Polar-MMV Screening Library” (2021), ChEMBL document CHEMBL3988442.